# Measured values reported in publication PMC10521137.
# Sequences of proteins named here, by UniProt entry; tags and fusion partners are left off. A change or cut given only in a name is not applied to a line headed by its entry. Residues count along the entry.
# UniProt P22216: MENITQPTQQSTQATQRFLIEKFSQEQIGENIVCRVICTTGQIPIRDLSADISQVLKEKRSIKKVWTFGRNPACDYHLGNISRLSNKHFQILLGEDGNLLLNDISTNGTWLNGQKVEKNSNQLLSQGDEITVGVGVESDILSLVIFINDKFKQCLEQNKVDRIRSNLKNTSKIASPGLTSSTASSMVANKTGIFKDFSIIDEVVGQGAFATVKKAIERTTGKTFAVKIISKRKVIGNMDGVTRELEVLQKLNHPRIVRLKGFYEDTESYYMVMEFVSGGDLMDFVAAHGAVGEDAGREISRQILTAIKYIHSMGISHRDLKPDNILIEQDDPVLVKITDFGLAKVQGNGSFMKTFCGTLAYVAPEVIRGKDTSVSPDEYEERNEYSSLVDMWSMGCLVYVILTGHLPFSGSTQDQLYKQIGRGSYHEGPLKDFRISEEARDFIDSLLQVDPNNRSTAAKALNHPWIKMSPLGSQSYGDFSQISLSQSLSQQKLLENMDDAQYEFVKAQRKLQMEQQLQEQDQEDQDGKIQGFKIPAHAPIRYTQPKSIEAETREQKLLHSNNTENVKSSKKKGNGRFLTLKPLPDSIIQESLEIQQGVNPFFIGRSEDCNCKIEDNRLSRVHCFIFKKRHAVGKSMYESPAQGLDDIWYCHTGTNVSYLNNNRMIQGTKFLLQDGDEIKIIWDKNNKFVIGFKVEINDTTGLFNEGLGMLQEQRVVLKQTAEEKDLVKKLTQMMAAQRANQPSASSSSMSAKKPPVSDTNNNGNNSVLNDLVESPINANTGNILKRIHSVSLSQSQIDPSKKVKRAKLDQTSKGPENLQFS
# Rad53 FHA1 domain (1-165) (yeast two-hybrid): residues 1-165 of P22216
# Substitutions are numbered along the chain they refer to. Names and notes keep the numbering of the source. No constants are given. Whether binding was seen depends on the method and setting. For some of these results: Binding seen in cells or lysates may run through a third protein. Some entries that bind do so weakly or less than the wild type. For some of these results: Tags and fused reporters may be left off the sequences shown.
# T1: Pol12, full length (yeast two-hybrid) (S. cerevisiae) (UniProt P38121)
# T1 sequence: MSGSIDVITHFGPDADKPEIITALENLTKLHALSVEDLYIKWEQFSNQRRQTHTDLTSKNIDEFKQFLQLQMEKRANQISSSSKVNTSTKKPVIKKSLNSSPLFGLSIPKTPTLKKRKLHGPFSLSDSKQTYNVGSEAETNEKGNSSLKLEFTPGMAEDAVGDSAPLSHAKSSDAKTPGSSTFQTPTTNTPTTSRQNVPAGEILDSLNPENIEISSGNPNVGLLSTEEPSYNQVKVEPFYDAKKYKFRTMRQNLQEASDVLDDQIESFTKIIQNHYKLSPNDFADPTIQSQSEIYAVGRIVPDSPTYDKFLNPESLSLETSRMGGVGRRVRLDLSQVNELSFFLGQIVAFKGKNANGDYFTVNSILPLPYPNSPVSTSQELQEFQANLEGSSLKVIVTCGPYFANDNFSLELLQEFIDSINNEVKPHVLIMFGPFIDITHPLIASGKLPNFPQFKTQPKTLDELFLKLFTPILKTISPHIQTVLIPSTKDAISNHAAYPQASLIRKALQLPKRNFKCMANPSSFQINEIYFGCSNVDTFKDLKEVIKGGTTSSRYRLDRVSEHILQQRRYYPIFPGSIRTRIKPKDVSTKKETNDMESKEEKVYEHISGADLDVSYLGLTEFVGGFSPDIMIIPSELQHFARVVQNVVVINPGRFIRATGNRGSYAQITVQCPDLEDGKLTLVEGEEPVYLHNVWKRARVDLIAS
# B1: Pol1-13myc (protein, UniProt P13382 1-1468)
# chain: MSSKSEKLEKLRKLQAARNGTSIDDYEGDESDGDRIYDEIDEKEYRARKRQELLHDDFVVDDDGVGYVDRGVEEDWREVDNSSSDEDTGNLASKDSKRKKNIKREKDHQITDMLRTQHSKSTLLAHAKKSQKKSIPIDNFDDILGEFESGEVEKPNILLPSKLRENLNSSPTSEFKSSIKRVNGNDESSHDAGISKKVKIDPDSSTDKYLEIESSPLKLQSRKLRYANDVQDLLDDVENSPVVATKRQNVLQDTLLANPPSAQSLADEEDDEDSDEDIILKRRTMRSVTTTRRVNIDSRSNPSTSPFVTAPGTPIGIKGLTPSKSLQSNTDVATLAVNVKKEDVVDPETDTFQMFWLDYCEVNNTLILFGKVKLKDDNCVSAMVQINGLCRELFFLPREGKTPTDIHEEIIPLLMDKYGLDNIRAKPQKMKYSFELPDIPSESDYLKVLLPYQTPKSSRDTIPSDLSSDTFYHVFGGNSNIFESFVIQNRIMGPCWLDIKGADFNSIRNASHCAVEVSVDKPQNITPTTTKTMPNLRCLSLSIQTLMNPKENKQEIVSITLSAYRNISLDSPIPENIKPDDLCTLVRPPQSTSFPLGLAALAKQKLPGRVRLFNNEKAMLSCFCAMLKVEDPDVIIGHRLQNVYLDVLAHRMHDLNIPTFSSIGRRLRRTWPEKFGRGNSNMNHFFISDICSGRLICDIANEMGQSLTPKCQSWDLSEMYQVTCEKEHKPLDIDYQNPQYQNDVNSMTMALQENITNCMISAEVSYRIQLLTLTKQLTNLAGNAWAQTLGGTRAGRNEYILLHEFSRNGFIVPDKEGNRSRAQKQRQNEENADAPVNSKKAKYQGGLVFEPEKGLHKNYVLVMDFNSLYPSIIQEFNICFTTVDRNKEDIDELPSVPPSEVDQGVLPRLLANLVDRRREVKKVMKTETDPHKRVQCDIRQQALKLTANSMYGCLGYVNSRFYAKPLAMLVTNKGREILMNTRQLAESMNLLVVYGDTDSVMIDTGCDNYADAIKIGLGFKRLVNERYRLLEIDIDNVFKKLLLHAKKKYAALTVNLDKNGNGTTVLEVKGLDMKRREFCPLSRDVSIHVLNTILSDKDPEEALQEVYDYLEDIRIKVETNNIRIDKYKINMKLSKDPKAYPGGKNMPAVQVALRMRKAGRVVKAGSVITFVITKQDEIDNAADTPALSVAERAHALNEVMIKSNNLIPDPQYYLEKQIFAPVERLLERIDSFNVVRLSEALGLDSKKYFRREGGNNNGEDINNLQPLETTITDVERFKDTVTLELSCPSCDKRFPFGGIVSSNYYRVSYNGLQCKHCEQLFTPLQLTSQIEHSIRAHISLYYAGWLQCDDSTCGIVTRQVSVFGKRCLNDGCTGVMRYKYSDKQLYNQLLYFDSLFDCEKNKKQELKPIYLPDDLDYPKEQLTESSIKALTEQNRELMETGRSVVQKYLNDCGRRYVDMTSIFDFMLN
# B2: Y-Pol1 (protein, UniProt P13382 1-1468)
# chain: B1 chain
# B3: Wild type full length Pol1 (yeast two-hybrid) (protein, UniProt P13382 1-1468)
# chain: B1 chain
# B4: Pol1-1A (T402A), full length (yeast two-hybrid) (protein, UniProt P13382 1-1468)
# chain: B1 chain with T402A
# B5: Pol12, full length (yeast two-hybrid) (protein, UniProt P38121 1-705)
# chain: T1 sequence
# Key:
# [1] = molecular target: internally tagged Rad53-6HA (S. cerevisiae) (UniProt P22216); assay: co-IP; anti-HA immunoprecipitation of internally tagged Rad53-6HA from yeast strains with POL1-13myc, arrested in 200 mM HU or released from G1 into S-phase with or without HU
# Rad53-FP (S. cerevisiae) = Rad53-FP (S. cerevisiae) (UniProt P22216); assay: split reporter; BiFC with split YFP in living yeast: Y-Pol1 and Rad53-FP; cells released from G1 into 200 mM HU for 60 minutes or into S-phase without HU; nuclear fluorescence by confocal microscopy
# [2] = molecular target: T1, Pol12, full length (yeast two-hybrid) (S. cerevisiae); assay: two-hybrid; yeast two-hybrid in L40 diploid strain with bait and prey plasmids; growth on selective -L-T-H against non-selective -L-T plates, 3 days
# [3] = molecular target: Rad53 FHA1 domain (1-165) (yeast two-hybrid) (S. cerevisiae) (UniProt P22216); assay: as above
# [4] = molecular target: full length Rad53 (yeast two-hybrid) (S. cerevisiae) (UniProt P22216); assay: as above
binder,measurement,setting,value
B1,binding,[1],binds
B2,binding,Rad53-FP (S. cerevisiae),binds
B3,binding,[2],binds
same,binding,[3],binds
same,binding,[4],binds
B4,binding,[2],binds
B5,binding,[4],no binding
